This experiment deals with EGFP-full length GRP78 (wild type) (human) (UniProt P11021). Kind of experiment: co-IP; EGFP-GRP78 fusion as bait co-expressed with the prey in HEK293T/17 for 48 h; lysate in 50 mM HEPES pH 7.4, 150 mM NaCl, 1 mM EGTA, 10% glycerol, 1% Triton X-100; GFP-Trap beads, 4 °C, 1 h; western blot. (Immunoblotting shows a protein as a band on a membrane.)

The chains behind the UniProt entries cited, without tags or fusion partners. Where a name states a change or a piece, a line headed by the entry shows the natural chain unless it says otherwise. Residues count along the entry.
UniProt P11021, residues 19-654: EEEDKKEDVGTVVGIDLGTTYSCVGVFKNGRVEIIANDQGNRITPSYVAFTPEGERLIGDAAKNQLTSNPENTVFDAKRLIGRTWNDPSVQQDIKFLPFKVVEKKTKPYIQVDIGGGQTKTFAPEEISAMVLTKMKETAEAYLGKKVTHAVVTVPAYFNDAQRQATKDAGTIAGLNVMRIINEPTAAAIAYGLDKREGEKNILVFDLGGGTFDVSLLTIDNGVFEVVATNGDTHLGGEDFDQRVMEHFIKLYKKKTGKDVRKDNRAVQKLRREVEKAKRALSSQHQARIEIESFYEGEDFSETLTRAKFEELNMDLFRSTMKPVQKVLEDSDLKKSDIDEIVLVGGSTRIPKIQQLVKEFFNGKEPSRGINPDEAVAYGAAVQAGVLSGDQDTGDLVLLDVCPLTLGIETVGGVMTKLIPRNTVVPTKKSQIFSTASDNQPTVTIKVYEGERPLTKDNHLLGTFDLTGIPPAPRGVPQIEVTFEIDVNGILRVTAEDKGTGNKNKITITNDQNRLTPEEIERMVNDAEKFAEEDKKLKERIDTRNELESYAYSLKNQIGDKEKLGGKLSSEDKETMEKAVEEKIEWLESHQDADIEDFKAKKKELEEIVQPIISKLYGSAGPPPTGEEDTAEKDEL
UniProt A0A142I5B9: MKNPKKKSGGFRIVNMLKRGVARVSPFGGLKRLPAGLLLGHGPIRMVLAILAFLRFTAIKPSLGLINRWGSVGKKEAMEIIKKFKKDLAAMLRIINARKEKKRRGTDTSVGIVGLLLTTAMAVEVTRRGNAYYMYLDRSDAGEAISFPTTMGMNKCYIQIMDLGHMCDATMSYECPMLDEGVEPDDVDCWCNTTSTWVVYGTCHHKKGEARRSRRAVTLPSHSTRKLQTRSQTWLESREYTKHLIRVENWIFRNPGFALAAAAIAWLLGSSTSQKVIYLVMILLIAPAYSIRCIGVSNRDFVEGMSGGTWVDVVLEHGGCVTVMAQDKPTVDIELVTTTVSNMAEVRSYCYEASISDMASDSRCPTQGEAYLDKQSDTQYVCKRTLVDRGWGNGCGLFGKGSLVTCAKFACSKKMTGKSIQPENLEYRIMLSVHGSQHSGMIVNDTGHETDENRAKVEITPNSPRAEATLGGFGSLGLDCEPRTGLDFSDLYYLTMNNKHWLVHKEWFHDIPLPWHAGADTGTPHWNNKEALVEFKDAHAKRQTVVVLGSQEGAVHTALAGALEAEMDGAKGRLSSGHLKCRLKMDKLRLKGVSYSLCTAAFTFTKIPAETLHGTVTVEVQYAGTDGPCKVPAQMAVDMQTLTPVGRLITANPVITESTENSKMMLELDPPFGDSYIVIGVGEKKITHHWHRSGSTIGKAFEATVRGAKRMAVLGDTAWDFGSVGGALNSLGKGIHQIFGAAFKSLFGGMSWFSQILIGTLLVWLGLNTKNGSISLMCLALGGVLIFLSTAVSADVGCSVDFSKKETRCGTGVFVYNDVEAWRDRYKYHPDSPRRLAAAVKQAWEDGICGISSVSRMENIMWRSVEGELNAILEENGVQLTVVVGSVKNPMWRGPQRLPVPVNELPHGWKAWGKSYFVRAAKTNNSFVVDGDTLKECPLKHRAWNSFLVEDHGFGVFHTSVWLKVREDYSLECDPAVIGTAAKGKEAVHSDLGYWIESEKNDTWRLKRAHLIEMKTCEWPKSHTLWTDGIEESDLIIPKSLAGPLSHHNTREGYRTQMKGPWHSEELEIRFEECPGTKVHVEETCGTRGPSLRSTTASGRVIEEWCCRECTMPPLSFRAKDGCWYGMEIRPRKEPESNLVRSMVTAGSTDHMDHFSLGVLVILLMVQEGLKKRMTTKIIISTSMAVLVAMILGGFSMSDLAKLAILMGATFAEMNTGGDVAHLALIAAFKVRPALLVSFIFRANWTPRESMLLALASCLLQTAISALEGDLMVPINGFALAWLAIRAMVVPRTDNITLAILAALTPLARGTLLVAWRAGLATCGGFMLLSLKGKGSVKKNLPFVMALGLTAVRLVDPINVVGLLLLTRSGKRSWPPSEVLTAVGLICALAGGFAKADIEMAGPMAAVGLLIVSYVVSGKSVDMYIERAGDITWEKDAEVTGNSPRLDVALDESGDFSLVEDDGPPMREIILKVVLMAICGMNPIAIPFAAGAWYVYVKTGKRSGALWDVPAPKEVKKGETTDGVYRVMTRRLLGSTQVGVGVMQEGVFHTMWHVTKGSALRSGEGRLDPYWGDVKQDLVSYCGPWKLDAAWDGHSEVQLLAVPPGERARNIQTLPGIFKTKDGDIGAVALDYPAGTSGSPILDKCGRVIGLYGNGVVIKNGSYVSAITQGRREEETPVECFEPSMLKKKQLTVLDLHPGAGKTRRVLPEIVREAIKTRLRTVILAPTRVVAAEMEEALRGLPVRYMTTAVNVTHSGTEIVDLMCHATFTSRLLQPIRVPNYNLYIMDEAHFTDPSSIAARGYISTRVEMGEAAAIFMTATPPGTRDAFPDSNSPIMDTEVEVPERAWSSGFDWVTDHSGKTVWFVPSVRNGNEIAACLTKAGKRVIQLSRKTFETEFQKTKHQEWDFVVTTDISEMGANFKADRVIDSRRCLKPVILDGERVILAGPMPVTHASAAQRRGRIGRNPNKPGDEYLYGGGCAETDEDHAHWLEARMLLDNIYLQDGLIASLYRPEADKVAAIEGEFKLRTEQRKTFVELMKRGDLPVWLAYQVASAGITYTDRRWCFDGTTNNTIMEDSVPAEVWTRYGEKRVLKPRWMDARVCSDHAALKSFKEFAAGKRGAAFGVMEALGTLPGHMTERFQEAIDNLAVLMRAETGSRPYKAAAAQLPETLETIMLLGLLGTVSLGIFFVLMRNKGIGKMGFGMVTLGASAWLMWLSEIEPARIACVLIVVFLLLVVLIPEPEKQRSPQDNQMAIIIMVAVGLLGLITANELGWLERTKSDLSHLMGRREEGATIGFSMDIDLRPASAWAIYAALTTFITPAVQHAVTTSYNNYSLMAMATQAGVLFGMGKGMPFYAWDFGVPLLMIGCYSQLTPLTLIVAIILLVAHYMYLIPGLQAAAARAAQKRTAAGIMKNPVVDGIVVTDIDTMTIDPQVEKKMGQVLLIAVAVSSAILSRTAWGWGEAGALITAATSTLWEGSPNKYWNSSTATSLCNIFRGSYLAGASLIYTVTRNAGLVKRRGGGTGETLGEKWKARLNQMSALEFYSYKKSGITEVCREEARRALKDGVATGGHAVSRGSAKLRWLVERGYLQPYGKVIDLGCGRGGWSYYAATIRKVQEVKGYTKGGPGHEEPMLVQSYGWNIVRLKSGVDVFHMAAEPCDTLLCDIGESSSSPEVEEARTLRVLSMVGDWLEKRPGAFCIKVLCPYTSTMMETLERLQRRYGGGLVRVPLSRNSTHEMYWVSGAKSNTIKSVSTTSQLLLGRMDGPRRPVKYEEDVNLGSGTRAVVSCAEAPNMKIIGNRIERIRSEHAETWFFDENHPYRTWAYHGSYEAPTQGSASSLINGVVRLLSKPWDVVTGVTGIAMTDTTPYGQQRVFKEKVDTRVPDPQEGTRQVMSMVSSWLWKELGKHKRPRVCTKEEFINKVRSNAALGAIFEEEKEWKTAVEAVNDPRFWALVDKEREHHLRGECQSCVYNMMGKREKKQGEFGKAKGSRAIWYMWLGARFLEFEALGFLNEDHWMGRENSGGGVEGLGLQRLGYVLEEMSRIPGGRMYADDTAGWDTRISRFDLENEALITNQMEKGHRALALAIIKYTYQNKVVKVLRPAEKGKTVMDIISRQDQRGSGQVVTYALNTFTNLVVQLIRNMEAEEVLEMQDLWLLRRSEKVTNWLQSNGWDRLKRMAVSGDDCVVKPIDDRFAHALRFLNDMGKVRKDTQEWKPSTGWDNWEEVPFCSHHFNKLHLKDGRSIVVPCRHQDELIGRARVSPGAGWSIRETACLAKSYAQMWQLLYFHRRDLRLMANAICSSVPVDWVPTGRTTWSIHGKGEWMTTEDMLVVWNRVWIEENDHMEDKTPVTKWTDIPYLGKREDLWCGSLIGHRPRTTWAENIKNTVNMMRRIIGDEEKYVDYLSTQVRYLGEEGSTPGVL

Results are given in words; binding and its absence hold for the method and conditions named. Binding seen in cells or lysates may run through a third protein. Binding can be weak; no strength is given.

This note sets out measurements from paper PMC11074156.

In the case of “ZIKV NS1 wing domain, HA tagged (from UniProt A0A142I5B9) (domain or fragment)”, the binding result is “binds”.
For “ZIKV NS1 β-ladder domain, HA tagged (from UniProt A0A142I5B9) (domain or fragment)” the value was “binds”.
